Source: article PMC11499588
No constants are given. Whether binding was seen depends on the method and setting. In cells and extracts the contact can be indirect. A result given as binding can be weak or reduced; the word gives no strength. Where a sequence is shown, tags or fusion partners need not be part of it.

Experiments:
[1] = target: T1, human diacylglycerol O-acyltransferase 2, FLAG-tagged (DGAT2-FLAG) (human) (UniProt Q96PD7); experiment: co-IP; Huh7 cells cotransfected with DGAT2-FLAG and ZIKV NS2B3-HA plasmids; whole-cell lysates; IP with anti-FLAG antibody
T1 sequence: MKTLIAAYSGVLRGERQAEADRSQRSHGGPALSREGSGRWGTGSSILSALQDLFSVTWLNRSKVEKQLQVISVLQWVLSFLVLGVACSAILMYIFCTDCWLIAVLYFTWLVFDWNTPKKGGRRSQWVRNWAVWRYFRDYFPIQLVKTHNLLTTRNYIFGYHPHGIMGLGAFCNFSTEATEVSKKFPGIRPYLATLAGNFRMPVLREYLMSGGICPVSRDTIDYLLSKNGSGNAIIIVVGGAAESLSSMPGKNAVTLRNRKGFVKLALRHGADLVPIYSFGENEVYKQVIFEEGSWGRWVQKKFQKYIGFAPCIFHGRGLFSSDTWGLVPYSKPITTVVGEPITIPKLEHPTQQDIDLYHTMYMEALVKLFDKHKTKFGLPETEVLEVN

[2] = target: ZIKV NS2B3-S135A-HA (protease-dead mutant) (Zika virus (H/PF/2013 strain)); experiment: co-IP; Huh7 cells cotransfected with FLAG-tagged DGAT2 (whole or truncated) and HA-tagged NS2B3 (whole, truncated or S135A); whole-cell lysates (RIPA lysis buffer); IP with anti-HA agarose beads, 4 °C overnight; blots with anti-HA and anti-FLAG
[3] = target: ZIKV NS2B3-HA (NS2B-NS3 protease, wild type) (Zika virus (H/PF/2013 strain)); experiment: co-IP; 293T cells cotransfected with DGAT2-FLAG and ZIKV NS-HA plasmids; whole-cell extracts (RIPA lysis buffer); IP with anti-HA agarose beads, 4 °C overnight; blots with anti-FLAG and anti-HA
[4] = target: ZIKV NS2B3-HA (NS2B-NS3 protease, wild type) (Zika virus (H/PF/2013 strain)); experiment: co-IP; Huh7 cells cotransfected with FLAG-tagged DGAT2 (whole or truncated) and HA-tagged NS2B3 (whole, truncated or S135A); whole-cell lysates (RIPA lysis buffer); IP with anti-HA agarose beads, 4 °C overnight; blots with anti-HA and anti-FLAG

ZIKV NS2B3-HA (NS2B-NS3 protease, wild type) (Zika virus (H/PF/2013 strain)) (enzyme)
binding [1]: binds

B1: human diacylglycerol O-acyltransferase 2, FLAG-tagged (DGAT2-FLAG) (enzyme, UniProt Q96PD7 1-388)
chain: T1 sequence
binding [2]: binds | binding [3]: binds

B2: DGAT2 121-250 aa-FLAG (domain or fragment, UniProt Q96PD7 121-250)
chain: GRRSQWVRNWAVWRYFRDYFPIQLVKTHNLLTTRNYIFGYHPHGIMGLGAFCNFSTEATEVSKKFPGIRPYLATLAGNFRMPVLREYLMSGGICPVSRDTIDYLLSKNGSGNAIIIVVGGAAESLSSMPG
binding [4]: binds

B3: DGAT2 1-120 aa-FLAG (DGAT2-N120-FLAG) (domain or fragment, UniProt Q96PD7 1-120)
chain: MKTLIAAYSGVLRGERQAEADRSQRSHGGPALSREGSGRWGTGSSILSALQDLFSVTWLNRSKVEKQLQVISVLQWVLSFLVLGVACSAILMYIFCTDCWLIAVLYFTWLVFDWNTPKKG
binding [4]: no binding
